Source: PubChem BioAssay AID1259254 (NCATS, 2017)
In all, the deposit lists about 59,000 reagents; shown is an unselected part. Over the whole deposit, about 1,550 (2.6%) were called active. 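G2 share is only a proxy for re-replication; each gene was hit by three separate siRNAs, and active genes were retested.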 Reagents against one gene are numbered here. Further read-outs or replicates are left out here. Not given: the amount of reagent.

Aim: 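Finding genes that stop cells copying their DNA twice in one cycle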 (primary screen)
System: human HCT116 colorectal cancer cells
Knock-down reagent: single siRNA against human genes
Duration: 3 days
Measurement: 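Nuclei stained with Hoechst and imaged; cell-cycle phase assigned by DNA content; G2 share scaled per plate, non-targeting siRNA 0%, GMNN siRNA 100%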
Scale: G2 robust z-score and G2 cells, % of GMNN control: higher = more G2 cells, more excess DNA replication
Rule for the call: 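An siRNA counts as active if its G2 robust z-score lies at least 5 MADs above the screen median; here such calls match roughly 38% of GMNN control or more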

For UMODL1 #1, what does the deposit list?
G2 robust z-score: 1.42; G2 cells, % of GMNN control: 12.9; Outcome: inactive

What is on record for UMODL1 #2?
G2 robust z-score: 2.34; G2 cells, % of GMNN control: 19.5; Outcome: inactive

Which result is listed for UMODL1 #3?
G2 robust z-score: -0.52; G2 cells, % of GMNN control: -0.692; Outcome: inactive

With CSNK1A1 #1, how do the results read?
G2 robust z-score: -0.323; G2 cells, % of GMNN control: 0.695; Outcome: inactive

With CSNK1A1 #2, how do the results read?
G2 robust z-score: -0.198; G2 cells, % of GMNN control: 1.57; Outcome: inactive

Which result is listed for CSNK1A1 #3?
G2 robust z-score: 0.986; G2 cells, % of GMNN control: 9.9; Outcome: inactive

What did the screen give for METAP1D #1?
G2 robust z-score: -0.733; G2 cells, % of GMNN control: -2.19; Outcome: inactive

What did the screen give for METAP1D #2?
G2 robust z-score: 2.41; G2 cells, % of GMNN control: 19.9; Outcome: inactive

What is on record for METAP1D #3?
G2 robust z-score: 1.43; G2 cells, % of GMNN control: 13; Outcome: inactive

How did the screen score BPIFB3 #1?
G2 robust z-score: 4.03; G2 cells, % of GMNN control: 31.3; Outcome: inactive

For BPIFB3 #2, what does the deposit list?
G2 robust z-score: -0.0768; G2 cells, % of GMNN control: 2.43; Outcome: inactive

What did the screen give for BPIFB3 #3?
G2 robust z-score: -0.871; G2 cells, % of GMNN control: -3.16; Outcome: inactive

How did the screen score RUFY4 #1?
G2 robust z-score: 2.39; G2 cells, % of GMNN control: 19.8; Outcome: inactive

With RUFY4 #2, what was measured?
G2 robust z-score: -0.199; G2 cells, % of GMNN control: 1.57; Outcome: inactive

What is on record for RUFY4 #3?
G2 robust z-score: -0.691; G2 cells, % of GMNN control: -1.9; Outcome: inactive

Which result is listed for MYO9B #1?
G2 robust z-score: 0.00197; G2 cells, % of GMNN control: 2.98; Outcome: inactive

With MYO9B #2, how do the results read?
G2 robust z-score: -0.547; G2 cells, % of GMNN control: -0.878; Outcome: inactive

What did the screen give for MYO9B #3?
G2 robust z-score: 0.0187; G2 cells, % of GMNN control: 3.1; Outcome: inactive

For AAR2 #1, how do the results read?
G2 robust z-score: 1.22; G2 cells, % of GMNN control: 11.5; Outcome: inactive

With AAR2 #2, what was measured?
G2 robust z-score: -0.0372; G2 cells, % of GMNN control: 2.71; Outcome: inactive

With AAR2 #3, what does the deposit list?
G2 robust z-score: 1.29; G2 cells, % of GMNN control: 12; Outcome: inactive

Which result is listed for MISO1 #1?
G2 robust z-score: 0.42; G2 cells, % of GMNN control: 5.92; Outcome: inactive

What did the screen give for MISO1 #2?
G2 robust z-score: 6.78; G2 cells, % of GMNN control: 50.7; Outcome: active

For MISO1 #3, how do the results read?
G2 robust z-score: 2.59; G2 cells, % of GMNN control: 21.2; Outcome: inactive
